Data from publication doi:10.1101/2021.03.02.433611.
Results are given in words; binding and its absence hold for the method and conditions named. Binding seen in cells or lysates may run through a third protein. A yes stands for co-enrichment or nearness to the bait. Other partners may have been found.

Sequences of proteins named here, by UniProt entry; tags and fusion partners are left off. A change or cut given only in a name is not applied to a line headed by its entry.
UniProt P35637: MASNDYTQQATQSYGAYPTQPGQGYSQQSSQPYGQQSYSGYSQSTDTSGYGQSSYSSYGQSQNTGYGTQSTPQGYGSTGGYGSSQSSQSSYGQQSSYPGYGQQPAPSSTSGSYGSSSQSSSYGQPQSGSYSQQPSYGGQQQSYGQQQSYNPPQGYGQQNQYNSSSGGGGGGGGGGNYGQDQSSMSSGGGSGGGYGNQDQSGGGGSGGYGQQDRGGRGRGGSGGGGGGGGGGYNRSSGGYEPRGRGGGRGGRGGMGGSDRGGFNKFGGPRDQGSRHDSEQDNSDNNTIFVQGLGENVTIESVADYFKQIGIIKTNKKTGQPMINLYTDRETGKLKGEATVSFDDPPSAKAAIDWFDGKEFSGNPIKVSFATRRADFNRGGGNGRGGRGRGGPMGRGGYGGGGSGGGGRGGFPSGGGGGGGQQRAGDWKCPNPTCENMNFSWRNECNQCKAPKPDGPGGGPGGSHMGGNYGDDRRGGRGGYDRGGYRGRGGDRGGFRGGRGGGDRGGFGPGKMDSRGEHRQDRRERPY
UniProt Q13283: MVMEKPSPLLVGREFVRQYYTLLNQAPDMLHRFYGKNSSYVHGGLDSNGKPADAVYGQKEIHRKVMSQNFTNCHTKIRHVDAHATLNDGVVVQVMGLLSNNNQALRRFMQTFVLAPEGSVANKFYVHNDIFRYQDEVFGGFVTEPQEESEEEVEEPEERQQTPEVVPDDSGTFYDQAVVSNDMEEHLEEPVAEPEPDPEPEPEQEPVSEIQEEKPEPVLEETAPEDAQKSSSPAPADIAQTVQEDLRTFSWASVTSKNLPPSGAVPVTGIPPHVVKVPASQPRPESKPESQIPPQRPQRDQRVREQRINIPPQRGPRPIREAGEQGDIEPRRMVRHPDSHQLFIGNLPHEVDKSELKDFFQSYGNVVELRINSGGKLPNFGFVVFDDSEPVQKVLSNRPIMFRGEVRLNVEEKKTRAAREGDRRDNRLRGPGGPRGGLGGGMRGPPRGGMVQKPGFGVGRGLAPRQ

Tests used:
FUS(R522G)-GFP (human) = FUS(R522G)-GFP (human) (UniProt P35637); assay: affinity purification with mass spectrometry
G3BP1-GFP = G3BP1-GFP (UniProt Q13283); assay: affinity purification with mass spectrometry

binding (FUS(R522G)-GFP (human)) | binding (G3BP1-GFP) | Binder
binds | binds | UPF1 (protein, UniProt Q92900 1-1129) MSVEAYGPSSQTLTFLDTEEAELLGADTQGSEFEFTDFTLPSQTQTPPGGPGGPGGGGAGGPGGAGAGAAAGQLDAQVGPEGILQNGAVDDSVAKTSQLLAELNFEEDEEDTYYTKDLPIHACSYCGIHDPACVVYCNTSKKWFCNGRGNTSGSHIVNHLVRAKCKEVTLHKDGPLGETVLECYNCGCRNVFLLGFIPAKADSVVVLLCRQPCASQSSLKDINWDSSQWQPLIQDRCFLSWLVKIPSEQEQLRARQITAQQINKLEELWKENPSATLEDLEKPGVDEEPQHVLLRYEDAYQYQNIFGPLVKLEADYDKKLKESQTQDNITVRWDLGLNKKRIAYFTLPKTDSGNEDLVIIWLRDMRLMQGDEICLRYKGDLAPLWKGIGHVIKVPDNYGDEIAIELRSSVGAPVEVTHNFQVDFVWKSTSFDRMQSALKTFAVDETSVSGYIYHKLLGHEVEDVIIKCQLPKRFTAQGLPDLNHSQVYAVKTVLQRPLSLIQGPPGTGKTVTSATIVYHLARQGNGPVLVCAPSNIAVDQLTEKIHQTGLKVVRLCAKSREAIDSPVSFLALHNQIRNMDSMPELQKLQQLKDETGELSSADEKRYRALKRTAERELLMNADVICCTCVGAGDPRLAKMQFRSILIDESTQATEPECMVPVVLGAKQLILVGDHCQLGPVVMCKKAAKAGLSQSLFERLVVLGIRPIRLQVQYRMHPALSAFPSNIFYEGSLQNGVTAADRVKKGFDFQWPQPDKPMFFYVTQGQEEIASSGTSYLNRTEAANVEKITTKLLKAGAKPDQIGIITPYEGQRSYLVQYMQFSGSLHTKLYQEVEIASVDAFQGREKDFIILSCVRANEHQGIGFLNDPRRLNVALTRARYGVIIVGNPKALSKQPLWNHLLNYYKEQKVLVEGPLNNLRESLMQFSKPRKLVNTINPGARFMTTAMYDAREAIIPGSVYDRSSQGRPSSMYFQTHDQIGMISAGPSHVAAMNIPIPFNLVMPPMPPPGYFGQANGPAAGRGTPKGKTGRGGRQKNRFGLPGPSQTNLPNSQASQDVASQPFSQGALTQGYISMSQPSQMSQPGLSQPELSQDSYLGDEFKSQIDVALSQDSTYQGERAYQHGGVTGLSQY
 | binds | NUP160 (protein, UniProt Q12769 1-1436) MLHLSAAPPAPPPEVTATARPCLCSVGRRGDGGKMAAAGALERSFVELSGAERERPRHFREFTVCSIGTANAVAGAVKYSESAGGFYYVESGKLFSVTRNRFIHWKTSGDTLELMEESLDINLLNNAIRLKFQNCSVLPGGVYVSETQNRVIILMLTNQTVHRLLLPHPSRMYRSELVVDSQMQSIFTDIGKVDFTDPCNYQLIPAVPGISPNSTASTAWLSSDGEALFALPCASGGIFVLKLPPYDIPGMVSVVELKQSSVMQRLLTGWMPTAIRGDQSPSDRPLSLAVHCVEHDAFIFALCQDHKLRMWSYKEQMCLMVADMLEYVPVKKDLRLTAGTGHKLRLAYSPTMGLYLGIYMHAPKRGQFCIFQLVSTESNRYSLDHISSLFTSQETLIDFALTSTDIWALWHDAENQTVVKYINFEHNVAGQWNPVFMQPLPEEEIVIRDDQDPREMYLQSLFTPGQFTNEALCKALQIFCRGTERNLDLSWSELKKEVTLAVENELQGSVTEYEFSQEEFRNLQQEFWCKFYACCLQYQEALSHPLALHLNPHTNMVCLLKKGYLSFLIPSSLVDHLYLLPYENLLTEDETTISDDVDIARDVICLIKCLRLIEESVTVDMSVIMEMSCYNLQSPEKAAEQILEDMITIDVENVMEDICSKLQEIRNPIHAIGLLIREMDYETEVEMEKGFNPAQPLNIRMNLTQLYGSNTAGYIVCRGVHKIASTRFLICRDLLILQQLLMRLGDAVIWGTGQLFQAQQDLLHRTAPLLLSYYLIKWGSECLATDVPLDTLESNLQHLSVLELTDSGALMANRFVSSPQTIVELFFQEVARKHIISHLFSQPKAPLSQTGLNWPEMITAITSYLLQLLWPSNPGCLFLECLMGNCQYVQLQDYIQLLHPWCQVNVGSCRFMLGRCYLVTGEGQKALECFCQAASEVGKEEFLDRLIRSEDGEIVSTPRLQYYDKVLRLLDVIGLPELVIQLATSAITEAGDDWKSQATLRTCIFKHHLDLGHNSQAYEALTQIPDSSRQLDCLRQLVVVLCERSQLQDLVEFPYVNLHNEVVGIIESRARAVDLMTHNYYELLYAFHIYRHNYRKAGTVMFEYGMRLGREVRTLRGLEKQGNCYLAALNCLRLIRPEYAWIVQPVSGAVYDRPGASPKRNHDGECTAAPTNRQIEILELEDLEKECSLARIRLTLAQHDPSAVAVAGSSSAEEMVTLLVQAGLFDTAISLCQTFKLPLTPVFEGLAFKCIKLQFGGEAAQAEAWAWLAANQLSSVITTKESSATDEAWRLLSTYLERYKVQNNLYHHCVINKLLSHGVPLPNWLINSYKKVDAAELLRLYLNYDLLEEAVDLVSEYVDAVLGKGHQYFGIEFPLSATAPMVWLPYSSIDQLLQALGENSANSHNIALSQKILDKLEDYQQKVDKATRDLLYRRTL
